Measured values from PMC9024893, “1,2,4-Trioxolane and 1,2,4,5-Tetraoxane Endoperoxides against Old-World Leishmania Parasites: In Vitro Activity and Mode of Action” (Pharmaceuticals, 2022).

Tests used:
[1] = system: L. donovani BD14 promastigotes; test: Promastigotes susceptibility assay (MTT), L. donovani; assay type: cell-based, Leishmania donovani; details: for SI (J774A.1), L. donovani promastigotes: CC50 in J774A.1 / IC50 of promastigotes; for SI (THP-1), L. donovani promastigotes: CC50 in THP-1 / IC50 of promastigotes
Protocol: (§1) Promastigote forms of strains of L. infantum (MHOM/PT/1988/IMT151) and L. donovani (MHOM/BD/2006/BD14) were cultured at 24 °C ± 1 °C in M199 medium (Sigma) supplemented with 20% foetal bovine serum (FBS, Sigma) and 1% penicillin-streptomycin (Sigma). L. infantum strain belongs to IHMT, Portugal cryobank collection and the L. donovani strain was kindly provided by Dr. Katrin Kuhls, Technical University of Applied Sciences Wildau, Germany. Promastigotes used for the experiments had 7 to 12 in vitro passages in culture after isolation from mice, in order to keep virulence, and were used when the stationary phase of growth was reached (day 5 to 6), corresponding to the highest promastigotes density.
(§2) For the determination of the antileishmanial activity and IC50, promastigotes of L. infantum and L. donovani were plated in 96-well flat bottom culture plates at a concentration of 5 × 10^6 parasites/mL and incubated with six serial concentrations of each compound (Table 3), in four replicates, including the control drugs, amphotericin B, miltefosine and pentamidine. One untreated control (parasites with M199 medium plus 0.5% DMSO as vehicle solution) and one blank (M199 medium alone) were also plated out in quadruplicate. After 48 h incubation at 24 °C ± 1 °C, the inhibitory activity of the compounds was evaluated using the MTT, as previously described, with an additional 4 h incubation at 36 °C. Results were expressed in terms of percentage of parasite viability relative to nontreated control and IC50 was calculated fitting the data as a non-linear regression with variable slope using a dose-response inhibitory model, in the GraphPad Prism V 8.0 program. Each compound was tested in three independent assays. […]

[2] = system: L. infantum IMT151 promastigotes; test: Promastigotes susceptibility assay (MTT), L. infantum; assay type: cell-based, Leishmania infantum; details: for SI (J774A.1), L. infantum promastigotes: CC50 in J774A.1 / IC50 of promastigotes; for SI (THP-1), L. infantum promastigotes: CC50 in THP-1 / IC50 of promastigotes
Protocol: as §1, §2

[3] = system: L. infantum IMT151 intracellular amastigotes; test: Intracellular amastigotes assay in J774A.1 macrophages, L. infantum; assay type: cell-based, Leishmania infantum
Protocol: (§3) The intracellular assay using the macrophage J774A.1 cell line was performed with the compounds that presented best SI on the promastigote’s susceptibility assay. J774A.1 cells were adjusted to 2.5 × 10^5 cells/mL in supplemented DMEM medium. 200 μL/well of the cell suspension was placed in 16 well Lab Tek culture glass slides (Nunc), and incubated at 37 °C ± 1 °C, 5% CO2, for 3 h, to enable the cells to adhere to the slides. After a washing step with DMEM to discard non-attached cells, the cells were infected with 2.5 × 10^6 cells/mL promastigotes in a 10:1 parasite-host cell proportion for 24 h. Compounds and control drugs were added in two replicates of six serial concentrations (Table 3). As negative control, macrophages were cultivated in medium and DMSO, as vehicle solution (0.5% v/v). Slides were incubated for 48 h at the same temperature. After a washing step with 1× PBS (Sigma), slides were fixed and stained, and the infection index was calculated according to [34] by counting the number of intracellular amastigotes per 100 macrophages, in treated and untreated cells. Two independent experiments were performed to determine the amastigotes IC50 of each compound, which was calculated by fitting the data as a non-linear regression with variable slope using a dose-response inhibitory model, in the GraphPad Prism V 8.0 program. SI was determined as described above.

[4] = system: L. donovani BD14 intracellular amastigotes; test: Intracellular amastigotes assay in J774A.1 macrophages, L. donovani; assay type: cell-based, Leishmania donovani; details: CC50 in J774A.1 / IC50 of amastigotes
Protocol: as §3

O=C1CCC2(CC1)OOC1(O2)C2CC3CC(C2)CC1C3 (stereo not drawn) [LC50, Dispiro[cyclohexane-1,3'-[1,2,4]trioxolane-5',2''-tricyclo[3.3.1.13,7]decan]-4-one]
SI (J774A.1), L. donovani promastigotes [1]: 1.5
SI (THP-1), L. donovani promastigotes [1]: 2.0
SI (J774A.1), L. infantum promastigotes [2]: 1.4
SI (THP-1), L. infantum promastigotes [2]: 1.9

C1CCC2(CC1)OOC1(OO2)C2CC3CC(C2)CC1C3 [LC137]
SI (J774A.1), L. donovani promastigotes [1]: 3.1
SI (THP-1), L. donovani promastigotes [1]: 24.9
SI (J774A.1), L. infantum amastigotes ([3]; CC50 in J774A.1 / IC50 of amastigotes): 2.6
SI (THP1), L. infantum amastigotes ([3]; CC50 in THP-1 / IC50 of amastigotes): 21.2
SI (J774A.1), L. donovani amastigotes [4]: 5.0
SI (J774A.1), L. infantum promastigotes [2]: 3.2
SI (THP-1), L. infantum promastigotes [2]: 26.0

C1CC2(CCN1)OOC1(OO2)C2CC3CC(C2)CC1C3 [LC139]
SI (J774A.1), L. donovani promastigotes [1]: 1.8
SI (THP-1), L. donovani promastigotes [1]: 0.2
SI (J774A.1), L. infantum promastigotes [2]: 1.9
SI (THP-1), L. infantum promastigotes [2]: 0.2
